Assay in all cases: co-IP; anti-GFP or anti-FLAG antibodies pre-bound to agarose beads, overnight at 4 °C; lysates of transfected HeLa cells in NET2 buffer (50 mM Tris-HCl pH 7.4, 150 mM NaCl, 0.05% Nonidet P-40); western blot; also from RNase A treated lysates (Fig. 1d)
Assay [1] addresses T1, TSSC4 Δ151–200-GFP (human) (UniProt Q9Y5U2).
T1 sequence: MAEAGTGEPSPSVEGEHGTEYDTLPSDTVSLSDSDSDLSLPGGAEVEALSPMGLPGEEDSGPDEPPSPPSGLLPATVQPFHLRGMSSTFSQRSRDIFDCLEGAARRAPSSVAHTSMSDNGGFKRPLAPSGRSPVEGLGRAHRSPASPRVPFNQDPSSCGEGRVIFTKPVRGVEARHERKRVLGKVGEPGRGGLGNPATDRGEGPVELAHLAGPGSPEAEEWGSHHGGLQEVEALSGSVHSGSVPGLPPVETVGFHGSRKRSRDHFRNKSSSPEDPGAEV

For assay [2], the target named is T2, TSSC4 Δ201–250-GFP (human) (UniProt Q9Y5U2).
T2 sequence: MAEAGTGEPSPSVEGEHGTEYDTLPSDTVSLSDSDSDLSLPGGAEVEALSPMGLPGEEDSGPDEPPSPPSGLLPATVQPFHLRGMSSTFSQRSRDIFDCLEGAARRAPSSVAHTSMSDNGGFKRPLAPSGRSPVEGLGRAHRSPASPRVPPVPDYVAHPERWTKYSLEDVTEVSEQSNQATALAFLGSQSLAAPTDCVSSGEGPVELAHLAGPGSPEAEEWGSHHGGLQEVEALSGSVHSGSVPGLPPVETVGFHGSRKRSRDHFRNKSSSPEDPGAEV

The target in a further assay is T3, TSSC4 ΔHom4-GFP (human) (UniProt Q9Y5U2).
T3 sequence: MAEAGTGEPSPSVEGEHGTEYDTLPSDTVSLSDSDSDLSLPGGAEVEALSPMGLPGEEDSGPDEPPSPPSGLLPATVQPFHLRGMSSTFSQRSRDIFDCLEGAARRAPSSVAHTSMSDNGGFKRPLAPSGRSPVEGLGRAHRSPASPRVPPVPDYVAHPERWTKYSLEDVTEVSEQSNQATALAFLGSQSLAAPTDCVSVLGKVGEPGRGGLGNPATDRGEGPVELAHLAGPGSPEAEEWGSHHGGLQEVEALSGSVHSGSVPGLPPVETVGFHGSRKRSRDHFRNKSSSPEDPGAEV

A further assay has as its target TSSC4-GFP (human) (UniProt Q9Y5U2).
Assay [3] concerns the target T4, TSSC4 Δ51–100-GFP (human) (UniProt Q9Y5U2).
T4 sequence: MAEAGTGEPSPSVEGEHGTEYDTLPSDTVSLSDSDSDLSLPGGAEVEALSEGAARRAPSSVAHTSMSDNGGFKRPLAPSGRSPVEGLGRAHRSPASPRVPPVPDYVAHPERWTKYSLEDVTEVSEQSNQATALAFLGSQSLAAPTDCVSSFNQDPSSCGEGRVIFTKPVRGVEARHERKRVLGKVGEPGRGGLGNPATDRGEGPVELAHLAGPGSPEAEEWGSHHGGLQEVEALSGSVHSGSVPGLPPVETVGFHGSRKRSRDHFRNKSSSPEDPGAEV

In a further assay the target is T5, TSSC4 ΔHom2-GFP (human) (UniProt Q9Y5U2).
T5 sequence: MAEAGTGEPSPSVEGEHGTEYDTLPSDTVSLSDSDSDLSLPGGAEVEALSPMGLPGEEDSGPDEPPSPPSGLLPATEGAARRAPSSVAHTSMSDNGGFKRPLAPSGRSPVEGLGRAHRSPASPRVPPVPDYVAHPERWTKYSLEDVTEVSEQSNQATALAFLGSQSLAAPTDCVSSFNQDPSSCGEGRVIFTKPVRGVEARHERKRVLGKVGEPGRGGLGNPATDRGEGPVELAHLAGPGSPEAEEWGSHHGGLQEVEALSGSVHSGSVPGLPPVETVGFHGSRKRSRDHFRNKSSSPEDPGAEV

The target of assay [4] is TSSC4-GFP (human), Q9Y5U2. The following applies: remark: other sources report otherwise.

These results are taken from article PMC8206348.

No constants are given. Whether binding was seen depends on the method and setting. Binding seen in cells or lysates may run through a third protein. Some entries that bind do so weakly or less than the wild type. For part of these data: Where a sequence is shown, tags or fusion partners need not be part of it.

B1: PLRG1 (protein, UniProt O43660 1-514)
chain: MVEEVQKHSVHTLVFRSLKRTHDMFVADNGKPVPLDEESHKRKMAIKLRNEYGPVLHMPTSKENLKEKGPQNATDSYVHKQYPANQGQEVEYFVAGTHPYPPGPGVALTADTKIQRMPSESAAQSLAVALPLQTKADANRTAPSGSEYRHPGASDRPQPTAMNSIVMETGNTKNSALMAKKAPTMPKPQWHPPWKLYRVISGHLGWVRCIAVEPGNQWFVTGSADRTIKIWDLASGKLKLSLTGHISTVRGVIVSTRSPYLFSCGEDKQVKCWDLEYNKVIRHYHGHLSAVYGLDLHPTIDVLVTCSRDSTARIWDVRTKASVHTLSGHTNAVATVRCQAAEPQIITGSHDTTIRLWDLVAGKTRVTLTNHKKSVRAVVLHPRHYTFASGSPDNIKQWKFPDGSFIQNLSGHNAIINTLTVNSDGVLVSGADNGTMHLWDWRTGYNFQRVHAAVQPGSLDSESGIFACAFDQSESRLLTAEADKTIKVYREDDTATEETHPVSWKPEIIKRKRF
As for B1, the binding result in assay [1] is “binds”; in assay [2], “binds weakly”; with TSSC4 ΔHom4-GFP (human) it was “binds weakly”; in the assay with TSSC4-GFP (human), “binds”.

B2: CD2BP2 (protein, UniProt O95400 1-341)
chain: MPKRKVTFQGVGDEEDEDEIIVPKKKLVDPVAGSGGPGSRFKGKHSLDSDEEEDDDDGGSSKYDILASEDVEGQEAATLPSEGGVRITPFNLQEEMEEGHFDADGNYFLNRDAQIRDSWLDNIDWVKIRERPPGQRQASDSEEEDSLGQTSMSAQALLEGLLELLLPRETVAGALRRLGARGGGKGRKGPGQPSSPQRLDRLSGLADQMVARGNLGVYQETRERLAMRLKGLGCQTLGPHNPTPPPSLDMFAEELAEEELETPTPTQRGEAESRGDGLVDVMWEYKWENTGDAELYGPFTSAQMQTWVSEGYFPDGVYCRKLDPPGGQFYNSKRIDFDLYT
On to B2, for which the values for the binding entry (in assay [1]; in assay [3]; in the assay with TSSC4 ΔHom2-GFP (human)) were “binds”, “no binding” and “no binding”, respectively.

B3: DDX23, Q9BUQ8 1-820 (protein)
chain: MAGELADKKDRDASPSKEERKRSRTPDRERDRDRDRKSSPSKDRKRHRSRDRRRGGSRSRSRSRSKSAERERRHKERERDKERDRNKKDRDRDKDGHRRDKDRKRSSLSPGRGKDFKSRKDRDSKKDEEDEHGDKKPKAQPLSLEELLAKKKAEEEAEAKPKFLSKAEREAEALKRRQQEVEERQRMLEEERKKRKQFQDLGRKMLEDPQERERRERRERMERETNGNEDEEGRQKIREEKDKSKELHAIKERYLGGIKKRRRTRHLNDRKFVFEWDASEDTSIDYNPLYKERHQVQLLGRGFIAGIDLKQQKREQSRFYGDLMEKRRTLEEKEQEEARLRKLRKKEAKQRWDDRHWSQKKLDEMTDRDWRIFREDYSITTKGGKIPNPIRSWKDSSLPPHILEVIDKCGYKEPTPIQRQAIPIGLQNRDIIGVAETGSGKTAAFLIPLLVWITTLPKIDRIEESDQGPYAIILAPTRELAQQIEEETIKFGKPLGIRTVAVIGGISREDQGFRLRMGCEIVIATPGRLIDVLENRYLVLSRCTYVVLDEADRMIDMGFEPDVQKILEHMPVSNQKPDTDEAEDPEKMLANFESGKHKYRQTVMFTATMPPAVERLARSYLRRPAVVYIGSAGKPHERVEQKVFLMSESEKRKKLLAILEQGFDPPIIIFVNQKKGCDVLAKSLEKMGYNACTLHGGKGQEQREFALSNLKAGAKDILVATDVAGRGIDIQDVSMVVNYDMAKNIEDYIHRIGRTGRAGKSGVAITFLTKEDSAVFYELKQAILESPVSSCPPELANHPDAQHKPGTILTKKRREETIFA
Consider B3, for which, in assay [4], the binding result is given as “binds”.

B4: SNRNP40 (protein, UniProt Q96DI7 1-357)
chain: MIEQQKRKGPELPLVPVKRQRHELLLGAGSGPGAGQQQATPGALLQAGPPRCSSLQAPIMLLSGHEGEVYCCKFHPNGSTLASAGFDRLILLWNVYGDCDNYATLKGHSGAVMELHYNTDGSMLFSASTDKTVAVWDSETGERVKRLKGHTSFVNSCYPARRGPQLVCTGSDDGTVKLWDIRKKAAIQTFQNTYQVLAVTFNDTSDQIISGGIDNDIKVWDLRQNKLTYTMRGHADSVTGLSLSSEGSYLLSNAMDNTVRVWDVRPFAPKERCVKIFQGNVHNFEKNLLRCSWSPDGSKIAAGSADRFVYVWDTTSRRILYKLPGHAGSINEVAFHPDEPIIISASSDKRLYMGEIQ
With B4, the binding entry was “binds” in assay [1], “no binding” in assay [3], “no binding” with TSSC4 ΔHom2-GFP (human) and “binds” in the assay with TSSC4-GFP (human).

B5: PRPF6 (protein, UniProt O94906 1-941)
chain: MNKKKKPFLGMPAPLGYVPGLGRGATGFTTRSDIGPARDANDPVDDRHAPPGKRTVGDQMKKNQAADDDDEDLNDTNYDEFNGYAGSLFSSGPYEKDDEEADAIYAALDKRMDERRKERREQREKEEIEKYRMERPKIQQQFSDLKRKLAEVTEEEWLSIPEVGDARNKRQRNPRYEKLTPVPDSFFAKHLQTGENHTSVDPRQTQFGGLNTPYPGGLNTPYPGGMTPGLMTPGTGELDMRKIGQARNTLMDMRLSQVSDSVSGQTVVDPKGYLTDLNSMIPTHGGDINDIKKARLLLKSVRETNPHHPPAWIASARLEEVTGKLQVARNLIMKGTEMCPKSEDVWLEAARLQPGDTAKAVVAQAVRHLPQSVRIYIRAAELETDIRAKKRVLRKALEHVPNSVRLWKAAVELEEPEDARIMLSRAVECCPTSVELWLALARLETYENARKVLNKARENIPTDRHIWITAAKLEEANGNTQMVEKIIDRAITSLRANGVEINREQWIQDAEECDRAGSVATCQAVMRAVIGIGIEEEDRKHTWMEDADSCVAHNALECARAIYAYALQVFPSKKSVWLRAAYFEKNHGTRESLEALLQRAVAHCPKAEVLWLMGAKSKWLAGDVPAARSILALAFQANPNSEEIWLAAVKLESENDEYERARRLLAKARSSAPTARVFMKSVKLEWVQDNIRAAQDLCEEALRHYEDFPKLWMMKGQIEEQKEMMEKAREAYNQGLKKCPHSTPLWLLLSRLEEKIGQLTRARAILEKSRLKNPKNPGLWLESVRLEYRAGLKNIANTLMAKALQECPNSGILWSEAIFLEARPQRRTKSVDALKKCEHDPHVLLAVAKLFWSQRKITKAREWFHRTVKIDSDLGDAWAFFYKFELQHGTEEQQEEVRKRCESAEPRHGELWCAVSKDIANWQKKIGDILRLVAGRIKNTF
Take B5: the binding entry was “binds” in assay [1], “no binding” in assay [3] and “no binding” in the assay with TSSC4 ΔHom2-GFP (human).
